Data taken from US8124635B2, “Antimicrobial composition useful for preserving wood” (Rohm and Haas Company, priority 2006, dated 2012).
Values joined by “and” are separate entries in the source; they are usually repeats but may differ in a detail not shown here. Equal entries are not always repeated. At least one read-out could not be matched to a standard name with certainty.

What was measured:
[1] = tested on: Pseudomonas aeruginosa (Ps. aeruginosa—ATCC # 9027); assay: Microtiter plate MIC / synergy test (Kull synergy index), M9GY medium, 30° C.; assay type: cell-based; settings: contact time 48 hour
Description: (§1) One measure of synergism is the industrially accepted method described by Kull, F. C.; Eisman, P. C.; Sylwestrowicz, H. D. and Mayer, R. L., in Applied Microbiology 9:538-541 (1961), using the ratio determined by the formula: Ca/CA+Cb/CB=Synergy Index (“SI”) wherein: • CA=concentration of compound A (first component) in ppm, acting alone, which produced an end point (MIC of Compound A). • Ca=concentration of compound A in ppm, in the mixture, which produced an end point. • CB=concentration of compound B (second component) in ppm, acting alone, which produced an end point (MIC of Compound B). • Cb=concentration of compound B in ppm, in the mixture, which produced an end point.
(§2) When the sum of Ca/CA and Cb/CB is greater than one, antagonism is indicated. […] The lower the SI, the greater the synergy shown by that particular mixture. The minimum inhibitory concentration (MIC) of an antimicrobial compound is the lowest concentration tested under a specific set of conditions that prevents the growth of added microorganisms.
(§3) Synergy tests were conducted using standard microtiter plate assays with media designed for optimal growth of the test microorganism. Minimal salt medium supplemented with 0.2% glucose and 0.1% yeast extract (M9GY medium) was used for bacteria testing; Potato Dextrose Broth (PDB medium) was used for yeast and mold testing. In this method, a wide range of combinations of microbicides was tested by conducting high resolution MIC assays in the presence of various concentrations of biocides. High resolution MICs were determined by adding varying amounts of microbicide to one column of a microtitre plate and doing subsequent ten-fold dilutions using an automated liquid handling system to obtain a series of end points ranging of active ingredient. The synergy of the combinations of the present invention was determined against two bacteria, Pseudomonas aeruginosa (Ps. aeruginosa—ATCC # 9027) and Staphylococcus aureus (S. aureus—ATCC # 6538), a yeast, Candida albicans (C. albicans—ATCC # 10231), and a mold, Aspergillus niger (A. niger—ATCC 16404). The bacteria were used at a concentration of about 1-6×10^6 bacteria per mL and the yeast and mold at 1−5×10^5 fungi per mL. These microorganisms are representative of natural contaminants in many consumer and industrial applications. […] (yeast and mold) or 30° C. (bacteria).

[2] = tested on: Staphylococcus aureus (S. aureus—ATCC # 6538); assay: as above; assay type: cell-based
Description: as §1, §2, §3

Row | Structure (SMILES) | MIC of the component acting alone (end point) [1] | MIC of the component acting alone (end point) ([2]; contact time 24 hour) [ppm] | MIC of the component acting alone (end point) ([2]; contact time 48 hour) [ppm]
1 | CCCCCCCCn1sc(Cl)c(Cl)c1=O [DCOIT, 4,5-dichloro-2-n-octyl-4-isothiazolin-3-one] | 3.9 ppm | 0.2 | 0.3
2 | CCCCCCCCn1sccc1=O [OIT, 2-n-octyl-4-isothiazolin-3-one] | 525 ppm and 390 ppm | – | –
